Experimental data as given in patent US6270990.

Chains of the proteins cited; added tags and fusions are not shown. Chains listed by the source or under a name are the forms on record and can include a tag or linker.
NRSF lambda-H1 clone product (partial NRSF) (Homo sapiens), one chain, as listed by the source: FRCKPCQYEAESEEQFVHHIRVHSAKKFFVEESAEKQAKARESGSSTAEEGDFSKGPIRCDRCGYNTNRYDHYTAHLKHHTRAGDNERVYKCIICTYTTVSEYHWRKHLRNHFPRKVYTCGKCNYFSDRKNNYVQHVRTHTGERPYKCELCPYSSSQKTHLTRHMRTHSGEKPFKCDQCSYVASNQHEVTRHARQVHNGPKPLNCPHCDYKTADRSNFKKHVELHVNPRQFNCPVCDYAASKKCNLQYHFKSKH

Columns and labels:
[1] = system: NRSF lambda-H1 clone product (partial NRSF) (Homo sapiens); experiment: EMSA; settings: probe with two S36 copies; supershifted by anti-GST-lambdaH1; also bound in library filter screen; protein translated in vitro; protein details: poly-histidine fusion (pRSET B); label: 32P (probe, two tandem copies); letters built from the parent sequence and the stated change
[2] = system: NRSF lambda-HZ4 (partial) (Homo sapiens); experiment: activity in cells; settings: PC12 cells, pCAT3-S36++ CAT reporter; without NRSE 1.5 fold at maximum; protein in cells; protein details: vector-provided initiating Met (pcDNA3-ATG); letters built from the parent sequence and the stated change; only the site is given

Sequence: AGCTGCAAAGCCATTTCAGCACCACGGAGAGTGCCTCTGC (double strand) [S36 (SCG10 NRSE)]
- binding result [1]: binds
- activity on this sequence [2]: active

The exact form of at least one protein or probe is not confirmed.
